Patent EP3932936A1, “POLYPEPTIDE HAVING ANTIBACTERIAL ACTIVITY, COMPOSITION FOR PREVENTING OR TREATING SEPSIS COMPRISING SAME, AND ANTIBACTERIAL COMPOSITION” (Dandi Bioscience Inc, priority 2019, dated 2022)
Not every detail of the peptide structures is certain; ends, links or a residue may be inferred.

System: gram-negative and gram-positive standard strains (Escherichia coli DH5α, Escherichia coli K1, Acinetobacter baumannii, Pseudomonas aeruginosa, Salmonella …)
Test: Antibacterial activity test (MIC50 and MIC80) against standard strains, compared with four commercially available antibiotics
Type: cell-based
Details: compared with ampicillin, gentamicin, levofloxacin and imipenem; all seven strains

CC(C)C[C@@H](NC(=O)[C@H](N)CCCCN)C(=O)N[C@H](CCCNC(=N)N)C(=O)N[C@@H](C(=O)N[C@H](CCCCN)C(=O)N[C@H](CC(C)C)C(=O)N[C@H](CCCNC(=N)N)C(=O)N[C@H](CCCNC(=N)N)C(=O)N[C@H](Cc1ccc(O)cc1)C(=O)N[C@H](CC(C)C)C(=O)N[C@H](CCCNC(=N)N)C(N)=O)C(C)C [allD FP13-NH2 (AcOH)] was tested, and the antibacterial activity was “the same or superior antibacterial activity”.
